Laboratory results: publication doi:10.1101/781807
These are yes or no findings as the source states them, for the method shown. Binding seen in cells or lysates may run through a third protein. Some binding calls cover weakened binding; strength is not graded here.

Chains of the proteins cited; added tags and fusions are not shown. Residues count along the entry.
UniProt P16144, residues 28-1822: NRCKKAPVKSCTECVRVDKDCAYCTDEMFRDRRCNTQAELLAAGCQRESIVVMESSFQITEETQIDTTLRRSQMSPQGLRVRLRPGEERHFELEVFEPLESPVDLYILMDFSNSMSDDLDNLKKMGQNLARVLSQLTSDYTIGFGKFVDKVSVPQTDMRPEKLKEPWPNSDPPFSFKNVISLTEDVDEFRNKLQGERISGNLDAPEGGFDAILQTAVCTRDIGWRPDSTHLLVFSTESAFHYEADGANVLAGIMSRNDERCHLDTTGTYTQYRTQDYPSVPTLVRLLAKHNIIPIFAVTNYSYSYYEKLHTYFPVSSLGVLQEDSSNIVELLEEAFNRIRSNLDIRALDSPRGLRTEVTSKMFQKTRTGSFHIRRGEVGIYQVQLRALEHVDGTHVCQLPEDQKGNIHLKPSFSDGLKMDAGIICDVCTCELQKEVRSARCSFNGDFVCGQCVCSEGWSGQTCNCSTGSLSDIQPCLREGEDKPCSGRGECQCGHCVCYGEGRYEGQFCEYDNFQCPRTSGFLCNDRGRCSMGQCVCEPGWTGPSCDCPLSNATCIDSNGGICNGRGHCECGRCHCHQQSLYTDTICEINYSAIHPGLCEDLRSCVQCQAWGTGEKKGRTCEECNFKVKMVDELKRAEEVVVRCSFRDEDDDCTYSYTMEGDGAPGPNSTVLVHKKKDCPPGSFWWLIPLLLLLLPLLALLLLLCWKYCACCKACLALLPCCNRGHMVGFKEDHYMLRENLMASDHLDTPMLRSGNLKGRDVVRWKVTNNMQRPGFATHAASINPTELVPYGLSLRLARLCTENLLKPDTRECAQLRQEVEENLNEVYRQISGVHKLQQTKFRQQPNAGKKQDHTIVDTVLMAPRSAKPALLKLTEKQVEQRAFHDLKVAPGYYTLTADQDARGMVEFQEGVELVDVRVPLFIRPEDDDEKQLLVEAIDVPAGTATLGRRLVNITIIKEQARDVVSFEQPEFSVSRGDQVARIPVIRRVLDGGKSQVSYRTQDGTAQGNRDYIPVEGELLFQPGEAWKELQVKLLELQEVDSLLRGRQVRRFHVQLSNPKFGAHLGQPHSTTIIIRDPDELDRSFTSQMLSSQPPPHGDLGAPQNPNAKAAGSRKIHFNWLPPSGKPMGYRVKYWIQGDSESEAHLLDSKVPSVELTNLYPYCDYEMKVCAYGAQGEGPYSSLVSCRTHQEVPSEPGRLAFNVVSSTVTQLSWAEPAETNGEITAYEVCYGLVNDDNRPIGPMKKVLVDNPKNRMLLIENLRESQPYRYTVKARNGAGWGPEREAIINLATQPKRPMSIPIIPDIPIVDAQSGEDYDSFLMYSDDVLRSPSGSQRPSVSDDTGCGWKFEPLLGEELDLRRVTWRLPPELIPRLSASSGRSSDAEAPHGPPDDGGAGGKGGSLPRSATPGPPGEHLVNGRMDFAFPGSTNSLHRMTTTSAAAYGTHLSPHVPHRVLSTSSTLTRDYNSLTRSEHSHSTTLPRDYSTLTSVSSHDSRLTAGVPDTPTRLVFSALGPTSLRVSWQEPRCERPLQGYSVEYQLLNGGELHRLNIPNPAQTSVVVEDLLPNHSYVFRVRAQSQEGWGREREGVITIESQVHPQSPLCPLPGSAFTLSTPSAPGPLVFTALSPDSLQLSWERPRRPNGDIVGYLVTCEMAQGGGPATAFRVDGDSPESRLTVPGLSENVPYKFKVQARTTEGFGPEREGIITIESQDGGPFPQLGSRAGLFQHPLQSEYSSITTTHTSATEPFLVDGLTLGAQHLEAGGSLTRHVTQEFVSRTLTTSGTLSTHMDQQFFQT
UniProt P49023: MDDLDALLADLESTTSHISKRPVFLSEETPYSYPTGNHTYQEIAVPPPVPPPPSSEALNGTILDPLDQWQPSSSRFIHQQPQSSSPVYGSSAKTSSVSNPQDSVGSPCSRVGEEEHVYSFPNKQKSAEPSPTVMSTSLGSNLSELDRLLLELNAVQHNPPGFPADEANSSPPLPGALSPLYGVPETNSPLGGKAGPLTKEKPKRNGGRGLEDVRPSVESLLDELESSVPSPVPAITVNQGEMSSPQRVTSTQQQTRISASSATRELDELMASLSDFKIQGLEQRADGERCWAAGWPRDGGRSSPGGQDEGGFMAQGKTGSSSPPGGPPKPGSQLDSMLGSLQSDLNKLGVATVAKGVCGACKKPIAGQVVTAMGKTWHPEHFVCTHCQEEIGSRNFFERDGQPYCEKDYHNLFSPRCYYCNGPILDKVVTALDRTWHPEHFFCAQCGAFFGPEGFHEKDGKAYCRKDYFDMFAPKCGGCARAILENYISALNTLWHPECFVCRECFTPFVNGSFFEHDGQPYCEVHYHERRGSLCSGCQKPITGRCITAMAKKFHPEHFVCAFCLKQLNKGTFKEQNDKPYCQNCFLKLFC
UniProt Q05397: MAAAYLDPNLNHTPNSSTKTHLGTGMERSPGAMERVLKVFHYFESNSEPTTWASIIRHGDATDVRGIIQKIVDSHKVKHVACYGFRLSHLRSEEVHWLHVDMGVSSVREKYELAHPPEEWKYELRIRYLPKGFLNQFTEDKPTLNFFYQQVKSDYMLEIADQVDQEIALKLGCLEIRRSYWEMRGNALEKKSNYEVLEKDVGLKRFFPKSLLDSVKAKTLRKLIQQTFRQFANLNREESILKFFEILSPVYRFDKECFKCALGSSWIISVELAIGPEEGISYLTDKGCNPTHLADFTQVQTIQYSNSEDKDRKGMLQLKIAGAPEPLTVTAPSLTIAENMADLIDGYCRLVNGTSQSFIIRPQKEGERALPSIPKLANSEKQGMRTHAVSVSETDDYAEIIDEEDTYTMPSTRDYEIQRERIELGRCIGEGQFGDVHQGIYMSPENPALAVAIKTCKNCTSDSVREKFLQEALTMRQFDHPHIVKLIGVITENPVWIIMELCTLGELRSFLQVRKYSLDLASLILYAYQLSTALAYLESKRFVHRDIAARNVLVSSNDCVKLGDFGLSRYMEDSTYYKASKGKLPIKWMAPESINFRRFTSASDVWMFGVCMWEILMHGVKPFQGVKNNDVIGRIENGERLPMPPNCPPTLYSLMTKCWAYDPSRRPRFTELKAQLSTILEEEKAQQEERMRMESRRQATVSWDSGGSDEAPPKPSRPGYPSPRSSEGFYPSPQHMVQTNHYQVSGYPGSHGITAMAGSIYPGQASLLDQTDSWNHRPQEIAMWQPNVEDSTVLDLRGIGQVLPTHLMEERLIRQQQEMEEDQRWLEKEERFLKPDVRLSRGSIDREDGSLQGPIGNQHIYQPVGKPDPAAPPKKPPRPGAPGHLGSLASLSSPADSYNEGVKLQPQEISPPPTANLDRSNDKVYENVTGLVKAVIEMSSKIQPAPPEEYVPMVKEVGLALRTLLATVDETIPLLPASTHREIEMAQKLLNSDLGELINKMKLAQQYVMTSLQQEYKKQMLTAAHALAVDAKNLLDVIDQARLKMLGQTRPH

Target: integrin beta 4 (ITGB4) (human (endogenous in H2009)) (UniProt P16144)
Experiment: co-IP

Substance | binding
paxillin (PXN) (from UniProt P49023 1-591) | binds
focal adhesion kinase (FAK) (from UniProt Q05397 1-1052) (enzyme) | binds
